Data published in article PMC9429925.
Results are given in words; binding and its absence hold for the method and conditions named. Some entries that bind do so weakly or less than the wild type. For some of these results: Sequences can lack the tags named with a protein.

T1: T25-DcuR (E. coli) (UniProt P0AD01)
T1 sequence: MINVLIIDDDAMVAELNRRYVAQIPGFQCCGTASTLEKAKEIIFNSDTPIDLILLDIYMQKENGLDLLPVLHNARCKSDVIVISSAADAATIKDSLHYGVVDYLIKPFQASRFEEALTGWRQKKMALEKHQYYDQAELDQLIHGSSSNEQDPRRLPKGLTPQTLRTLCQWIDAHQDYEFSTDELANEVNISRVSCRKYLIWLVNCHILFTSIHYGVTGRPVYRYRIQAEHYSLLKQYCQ


Experiments:
T25-DcuR (E. coli) = target: T1, T25-DcuR (E. coli); assay: two-hybrid; bacterial two-hybrid BACTH in E. coli BTH101 (ΔcyaA); T25 N-terminally on DcuR, T18 C-terminally on DcuS or PASC-Kin; β-galactosidase activity in Miller units; wild-type pair also with fumarate
His6-DcuR (E. coli) = His6-DcuR (E. coli) (UniProt P0AD01); assay: SEC; each protein alone on HiLoad 16/600 Sephadex 200; His6-PASc-Kinase 45 μM, DcuR 55 μM; 50 mM Tris-HCl, 1 mM DTT, 50 mM KCl, 5 mM MgCl2, pH 7.7, 25°C; Mr by calibration with protein standards; both purified
[1] = target: phosphorylated DcuR (DcuR-P) (E. coli) (UniProt P0AD01); assay: as above

Row | binding (T25-DcuR (E. coli)) | further results | Binder
1 | binds |  | DcuS-T18 (protein, UniProt P0AEC8 1-543) MRHSLPYRMLRKRPMKLSTTVILMVSAVLFSVLLVVHLIYFSQISDMTRDGLANKALAVARTLADSPEIRQGLQKKPQESGIQAIAEAVRKRNDLLFIVVTDMQSLRYSHPEAQRIGQPFKGDDILKALNGEENVAINRGFLAQALRVFTPIYDENHKQIGVVAIGLELSRVTQQINDSRWSIIWSVLFGMLVGLIGTCILVKVLKKILFGLEPYEISTLFEQRQAMLQSIKEGVVAVDDRGEVTLINDAAQELLNYRKSQDDEKLSTLSHSWSQVVDVSEVLRDGTPRRDEEITIKDRLLLINTVPVRSNGVIIGAISTFRDKTEVRKLMQRLDGLVNYADALRERSHEFMNKLHVILGLLHLKSYKQLEDYILKTANNYQEEIGSLLGKIKSPVIAGFLISKINRATDLGHTLILNSESQLPDSGSEDQVATLITTLGNLIENALEALGPEPGGEISVTLHYRHGWLHCEVNDDGPGIAPDKIDHIFDKGVSTKGSERGVGLALVKQQVENLGGSIAVESEPGIFTQFFVQIPWDGERSNR
2 | binds |  | PASc-Kin-T18 [DcuS(211-539)] (domain or fragment, UniProt P0AEC8 211-539) GLEPYEISTLFEQRQAMLQSIKEGVVAVDDRGEVTLINDAAQELLNYRKSQDDEKLSTLSHSWSQVVDVSEVLRDGTPRRDEEITIKDRLLLINTVPVRSNGVIIGAISTFRDKTEVRKLMQRLDGLVNYADALRERSHEFMNKLHVILGLLHLKSYKQLEDYILKTANNYQEEIGSLLGKIKSPVIAGFLISKINRATDLGHTLILNSESQLPDSGSEDQVATLITTLGNLIENALEALGPEPGGEISVTLHYRHGWLHCEVNDDGPGIAPDKIDHIFDKGVSTKGSERGVGLALVKQQVENLGGSIAVESEPGIFTQFFVQIPWDGE
3 |  | binding (His6-DcuR (E. coli)): no binding (tested: 55 μM) | His6-DcuR (protein, UniProt P0AD01 1-239) MINVLIIDDDAMVAELNRRYVAQIPGFQCCGTASTLEKAKEIIFNSDTPIDLILLDIYMQKENGLDLLPVLHNARCKSDVIVISSAADAATIKDSLHYGVVDYLIKPFQASRFEEALTGWRQKKMALEKHQYYDQAELDQLIHGSSSNEQDPRRLPKGLTPQTLRTLCQWIDAHQDYEFSTDELANEVNISRVSCRKYLIWLVNCHILFTSIHYGVTGRPVYRYRIQAEHYSLLKQYCQ
4 |  | binding [1]: no binding (tested: 55 μM) | phosphorylated DcuR (DcuR-P) (protein, UniProt P0AD01 1-239, phosphorylated with carbamoyl phosphate; phosphorylation site Asp56) MINVLIIDDDAMVAELNRRYVAQIPGFQCCGTASTLEKAKEIIFNSDTPIDLILLDIYMQKENGLDLLPVLHNARCKSDVIVISSAADAATIKDSLHYGVVDYLIKPFQASRFEEALTGWRQKKMALEKHQYYDQAELDQLIHGSSSNEQDPRRLPKGLTPQTLRTLCQWIDAHQDYEFSTDELANEVNISRVSCRKYLIWLVNCHILFTSIHYGVTGRPVYRYRIQAEHYSLLKQYCQ
